Data as given in PubChem BioAssay AID504834 (National Center for Advancing Translational Sciences (NCATS), 2011).
Among all 320,000 compounds or so, about 22,000 (6.9%) were called active. Inconclusive results, whose numbers are uncertain, are shown with a selection of clear calls. The call rests on the fitted dose curve; in most records, active means well fitted inhibition curve with a large enough effect; inconclusive means small, poorly fitted or top-dose-only effect, or another doubt; inactive means no such curve, though single readings can be large or run the other way. A potency beside an inconclusive call is a rough fit, not a confirmed value.

Test: Primary qHTS for delayed death inhibitors of the malarial parasite plastid, 96 hour incubation
Conditions: P. falciparum luciferase reporter growth; series mostly up to 28.7 µM; activity change, negative = inhibition: at the top concentration
Summary of the method: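 Readout is luminescence from an integrated firefly luciferase in P. falciparum. Red cells, 2% hematocrit and 0.05% parasitemia final, were cultured with compound through two parasite generations (96 hours) at 37 C, 5% CO2.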
On the % scale 0 is the no-effect control and ±100 the full control effect; potency means the concentration at half of the fitted maximal effect.

Compound | activity change, negative = inhibition | Potency
O=C(Nc1ccc2ccccc2n1)c1ccc(Cl)cc1 | inactive: 241% | 
CNS(=O)(=O)c1ccc(C(=O)NCC(=O)NC(C)c2cccs2)cc1 (stereo not drawn) |  | inconclusive: 18.5 µM [inhibitor, single point]
O=C(CSc1nc2ccc(NC(=O)CSc3nnnn3-c3ccccc3)cc2s1)Nc1ccccc1 |  | inconclusive: 18.5 µM [inhibitor, single point]
O=C(NNC(=O)c1cc(-c2ccncc2)nc2ccccc12)c1ccccc1O |  | inconclusive: 18.5 µM [inhibitor, single point]
N#CCCN(Cc1ccccc1)C(=S)NC(=O)c1ccccc1 |  | inconclusive: 11.7 µM [inhibitor, single point]
O=C(NCc1ccc(Cl)cc1)c1noc2c1CCCC2 |  | inconclusive: 20.8 µM [inhibitor, partial curve, poor fit]
O=S(=O)(NCCCN1CCOCC1)c1ccc2c(c1)OCCO2 |  | active: 10.4 µM
CCCCC/C=C/C1=CC(=O)C[C@H](c2ccc(OC)cc2)C1 |  | inconclusive: 10.4 µM [inhibitor, single point]
Cc1cc2c(cc1C)C(c1cc(Br)ccc1F)CC(=O)N2 (stereo not drawn) |  | inconclusive: 0.262 µM [inhibitor, full curve, poor fit]
CC1CN(C(=O)Cn2cc(S(=O)(=O)CC(=O)N(C)c3ccccc3)c3ccccc32)CC(C)O1 (stereo not drawn) |  | active: 13.1 µM
O=C(CCCn1c(=O)c2cccn2c2cccnc21)NCc1cccc(Br)c1 |  | inconclusive: 3.29 µM [inhibitor, full curve]
C=CCNC(=S)N/N=C(\C)c1cccnc1 |  | inconclusive: 11.7 µM [inhibitor, single point]
Cc1nn(-c2ccccc2)cc1/C=N/NC(=O)c1cccs1 | inactive: -2.77% | 
Cc1cc(C)cc(N(CC(=O)N2CCCC2)S(C)(=O)=O)c1 | inactive: 1.08% | 
O=C1NCCc2c1[nH]c1ccccc21 |  | inactive
CCOC(=O)c1ccc(N2CCCCC2)c(NS(=O)(=O)c2ccc(C)cc2)c1 |  | active: 1.04 µM
CCC(OC(=O)CNS(=O)(=O)c1ccccc1)C(=O)c1ccccc1 (stereo not drawn) |  | inconclusive: 18.5 µM [inhibitor, partial curve, poor fit]
CC(CCc1ccccc1)NC(=O)CN(C)Cc1ccccc1F (stereo not drawn) |  | inconclusive: 4.15 µM [inhibitor, single point]
CCOc1ccc(N2C(=O)CC(N3CCc4ccccc43)C2=O)cc1 (stereo not drawn) |  | inconclusive: 18.5 µM [inhibitor, single point]
CC(C)CC(NC(=O)C(NC(=O)C1CCC(=O)N1C(=O)OCc1ccccc1)C(C)C)C(=O)N1CCCC1C(N)=O (stereo not drawn) |  | inconclusive: 5.22 µM [inhibitor, partial curve]
Cc1cc(C)c2nc(Nc3nc(-c4ccccc4)cc(=O)[nH]3)nc(C)c2c1 |  | active: 3.7 µM
Cc1cc(NC(=O)CCC(=O)N(Cc2ccco2)C(C(=O)NC2CCCC2)c2ccccc2F)no1 (stereo not drawn) |  | inconclusive: 0.0294 µM [inhibitor, full curve, poor fit]
COc1cc(C(=O)OCC(=O)N(C)Cc2ccccc2)cc(OC)c1OC |  | inconclusive: 5.86 µM [inhibitor, partial curve, poor fit]

Compound | activity change, negative = inhibition | Potency
NC(=S)NNc1ccc(Cl)c(Cl)c1 | inactive: -11.8% | 
Cc1ccc(S(=O)(=O)N2CCN(C3CC4CCC3C4)CC2)cc1 (stereo not drawn) | inactive: 15.5% | 
FC(F)(F)c1cc(-c2ccccn2)nc2cc(-c3ccccc3)nn12 |  | inconclusive: 0.104 µM [inhibitor, full curve, poor fit]
Cc1nc2nc(SCC(=O)c3cccc([N+](=O)[O-])c3)[nH]c2cc1Br |  | active: 11.7 µM
CCOc1ccc(NC(=O)C(C)Oc2ccccc2C(=O)Nc2ccc(C)c(Cl)c2)cc1 (stereo not drawn) |  | inconclusive: 18.5 µM [inhibitor, single point]
O=C(NCC1COc2ccccc2O1)c1c[nH]c2ccc(S(=O)(=O)N3CCOCC3)cc2c1=O (stereo not drawn) |  | inconclusive: 10.4 µM [inhibitor, single point]
CCN1CCN(S(=O)(=O)c2ccc(Cl)c(C(=O)N(C)Cc3cccs3)c2)CC1 |  | inconclusive: 18.5 µM [inhibitor, single point]
CCCCN(CC)C(=O)CSc1nc2ccccc2c(=O)n1CC1COc2ccccc2O1 (stereo not drawn) |  | inconclusive: 18.5 µM [inhibitor, single point]
O=C(Nc1c(-c2ccc(F)cc2)nc2ccccn12)c1ccc(F)cc1 |  | inconclusive: 0.0052 µM [inhibitor, full curve, poor fit]
CCc1n(CC(O)COC2CCCCC2)c2ccccc2[n+]1C (stereo not drawn) |  | inconclusive: 7.38 µM [inhibitor, partial curve]
Cc1nn(CC(=O)N2CCN(C)CC2)c(=O)c2c1sc1ccccc12 |  | inconclusive: 18.5 µM [inhibitor, single point]
C/C(Cc1ccccc1)=N/NC(=O)CCCC(=O)N/N=C(/C)Cc1ccccc1 |  | inconclusive: 8.28 µM [inhibitor, partial curve, poor fit]
CCN(CC)S(=O)(=O)c1ccc(C)c(NS(=O)(=O)c2cc(/C=C/C(=O)O)cc(OC)c2OC)c1 |  | inconclusive: 4.15 µM [inhibitor, single point]
COc1ccc(CNC(=O)CCSCc2ccccc2Cl)c(OC)c1 | inactive: 379% | 
COc1ccc(CCNC(=O)c2cnc(C)cn2)cc1 |  | inconclusive: 1.17 µM [inhibitor, partial curve, poor fit]
Cc1onc(C(=O)N2CCC(Cc3ccccc3)CC2)c1[N+](=O)[O-] |  | inconclusive: 0.0329 µM [inhibitor, full curve, poor fit]
CC(=O)NC1CC2CCCC(C1)N2C(=O)Nc1ccc(Cl)c(C(F)(F)F)c1 (stereo not drawn) |  | inconclusive: 18.5 µM [inhibitor, single point]
CCC1(c2ccc(Cl)cc2)NC(=S)N(c2ccc(C)cc2)N1 (stereo not drawn) | inactive: 109% | 
CNc1ccc(/C=C2\CSc3ccccc3C2=O)cc1[N+](=O)[O-] |  | inconclusive: 4.15 µM [inhibitor, single point]
COc1ccc(OC)c(-c2cc(C(=O)N3CCN(c4ncccn4)CC3)c3ccccc3n2)c1 |  | inconclusive: 9.28 µM [inhibitor, single point]
CCc1nnc(NC(=O)CSc2nnc(-c3ccc(S(=O)(=O)N(CC)CC)cc3)n2CC)s1 |  | inconclusive: 10.4 µM [inhibitor, single point]
O=C(NCc1nnc(SCC(=O)N2CCCC2)o1)c1ccc(F)cc1 |  | inconclusive: 0.104 µM [inhibitor, partial curve, poor fit]
COc1ccc(NC(=O)CSc2nnc(N)s2)c([N+](=O)[O-])c1 |  | inconclusive: 18.5 µM [inhibitor, single point]

6 entries from above in a different format.
Compound,"activity change, negative = inhibition",Potency
FC(F)(F)c1cc(-c2ccccn2)nc2cc(-c3ccccc3)nn12,,"inconclusive: 0.104 µM [inhibitor, full curve, poor fit]"
CCN1CCN(S(=O)(=O)c2ccc(Cl)c(C(=O)N(C)Cc3cccs3)c2)CC1,,"inconclusive: 18.5 µM [inhibitor, single point]"
CCCCN(CC)C(=O)CSc1nc2ccccc2c(=O)n1CC1COc2ccccc2O1 (stereo not drawn),,"inconclusive: 18.5 µM [inhibitor, single point]"
C/C(Cc1ccccc1)=N/NC(=O)CCCC(=O)N/N=C(/C)Cc1ccccc1,,"inconclusive: 8.28 µM [inhibitor, partial curve, poor fit]"
COc1ccc(CCNC(=O)c2cnc(C)cn2)cc1,,"inconclusive: 1.17 µM [inhibitor, partial curve, poor fit]"
COc1ccc(OC)c(-c2cc(C(=O)N3CCN(c4ncccn4)CC3)c3ccccc3n2)c1,,"inconclusive: 9.28 µM [inhibitor, single point]"

Next part:

Compound | activity change, negative = inhibition | Potency
COc1ccccc1CN1CCN(Cc2ccco2)CC1 | inactive: -12.2% | 
CCOc1ccc(NC2=NC(C)(C)N=C(N)N2)cc1 |  | inconclusive: 10.4 µM [inhibitor, single point]
Nc1c(-c2ccccn2)cnn1-c1nc(-c2ccc(F)cc2)cs1 | inactive: 125% | 
Cc1ccc(-n2cnnn2)cc1Cl |  | inconclusive: 8.28 µM [inhibitor, single point]
Cc1cccc(NC(=S)NCc2ccc(F)cc2)c1C |  | inconclusive: 18.5 µM [inhibitor, single point]
CCOC(=O)c1cnc(-n2nc(C)cc2C)nc1NNc1cc(C)nc(-c2ccccc2)n1 |  | inconclusive: 0.657 µM [inhibitor, full curve, poor fit]
Cc1ccc(NC(=O)c2cccc(S(C)(=O)=O)c2)cc1 | inactive: 338% | 
CCOC(=O)c1oc2ccccc2c1NC(=O)CCl |  | inconclusive: 18.5 µM [inhibitor, single point]
O=C(Nc1ccc2c(c1)OCO2)Nc1ccccc1F | inactive: 4.51% | 
COc1ccc(C(c2c(C)n(C)n(-c3ccccc3)c2=O)c2c(C)n(C)n(-c3ccccc3)c2=O)c(OC)c1OC |  | active: 10.4 µM
O=C(c1ccc2c3n(nc2c1)-c1ccccc1CO3)N1CCOCC1 | inactive: 119% | 
Cc1ccc(C(=O)NCCCNC(=O)c2ccco2)cc1C |  | inconclusive: 8.28 µM [inhibitor, partial curve, poor fit]
COC(=O)CNC(=O)Cn1cnc2sc(C)c(S(=O)(=O)N3CCN(c4ccccc4OC)CC3)c2c1=O | inactive: 8.4% | 
CCN(CC)C(=O)CSc1nc2ncc(Cl)cc2[nH]1 |  | inconclusive: 20.8 µM [inhibitor, partial curve, poor fit]
COc1ccc([N+](=O)[O-])cc1NC(=O)C(C)OC(=O)Cn1[nH]c(=O)c2ccccc2c1=O (stereo not drawn) | inactive: 23.1% | 
COc1ccccc1CNC(=O)c1nn(-c2ccc(C)cc2)c(=O)c2c1c1ccccc1n2C |  | inconclusive: 18.5 µM [inhibitor, single point]
Cc1cnc(NC(=O)CCCSc2nc3ccccc3s2)s1 |  | inconclusive: 10.4 µM [inhibitor, single point]
NC(=O)COC(=O)c1ccc(Cl)c(S(=O)(=O)N2CCN(c3ccc(F)cc3)CC2)c1 |  | inconclusive: 9.28 µM [inhibitor, single point]
CCN(CC)C(=O)COc1coc(CN2CCN(Cc3ccccc3)CC2)cc1=O |  | inconclusive: 14.7 µM [inhibitor, partial curve]
COC(=O)c1ccc(C(=O)NC2CC(C)(C)Cc3c2cnn3-c2ccc(F)cc2)nc1 (stereo not drawn) |  | inconclusive: 18.5 µM [inhibitor, single point]
OC(C[n+]1ccccc1)c1ccccc1 (stereo not drawn) |  | active: 0.657 µM
COc1ccc(-n2nc(C(=O)NCc3ccco3)c3ccccc3c2=O)cc1 |  | active: 3.29 µM
